Molecules are shown by their SMILES. Some of the results follow. The main result of the screen is listed elsewhere. These columns were measured beside it and carry no call. The list favours compounds with an active or inconclusive main result.

The nature of the assay: inhibitors of insulin promoter-driven GFP, primary screen, imaging, TRM-6 cells (human fetal islet line), eGFP reporter, cell count (AID 1273;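 further: cells exposed to compound for 48 h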). The following applies: measured here: cell count, toxicity, at 2 µM, reporter expression induced with tamoxifen.
For the compound `C=CCn1c(-c2cccs2)nc2ccccc21`, the normalized cell count was 88.5%.
`CC(C)C(=O)N1CCN(c2ccc(NC(=O)c3ccc4c(c3)OCCO4)cc2)CC1` had a normalized cell count of 88.8%.
As for `Nc1ncnc(Nc2ccccc2C(F)(F)F)n1`, the normalized cell count was determined as 144%.
For `CCOc1ccccc1NC(=O)Cc1ccccc1OC` the value was 129%; for `COc1ccc(NC(=S)NNC(=O)CCn2cc([N+](=O)[O-])cn2)cc1`, 49.6%.
Take `Cn1c(SCc2ccc(F)cc2)nnc1-c1cccs1`: the normalized cell count turned out to be 78.5%.
The same measure for `CC(=O)C(=Nc1ccccc1Cl)NNc1ccc(Cl)cc1`: 111%.
Compound `CCCCNC(=O)OCC(CC)NC(=O)OC(C)C` (centres undefined) showed a normalized cell count of 118%.
The compound `CC(=O)NC1(c2cccc(F)c2)CCN(CC(=O)NC2CCCCC2)CC1` displayed a normalized cell count of 127%.
For `Cc1sc2c(c1C)c(=O)n(-c1cccc(C(F)(F)F)c1)c(=O)n2CC(=O)NCc1ccco1` the value was 47.6%; for `Cc1cc(C(=O)NCc2ccccc2)c(=O)[nH]c1C`, 98.3%; for `N#C/C(=C\C1CC2C=CC1C2)c1nc2ccccc2[nH]1` (centres undefined), 171%.
The same measure for `CSc1ccc(/C=C(/Sc2nnc(-c3ccccc3)o2)C(=O)O)cc1`: 52.9%.
In the case of `Cc1ccc(N=Nc2c(C)[nH][nH]c2=O)c(C)c1`, the normalized cell count is 110%.
`CCn1c(COc2ccc3c(c2)OCO3)nnc1SCC(=O)O` returned a normalized cell count of 132%.
The same measure for `CCOC(=O)c1oc2c(c1C)/C(=N/O)CCC2`: 112%; for `CCOc1ccc(N2C(=O)CC(Sc3nccc(C)n3)C2=O)cc1` (centres undefined): 21.4%.
`Cc1ccc(NC(=O)COC(=O)CN2C(=O)NC(C)(C)C2=O)cc1S(=O)(=O)N1CCOCC1` yielded a normalized cell count of 160%.
`O=C(NCc1ccc(Cl)cc1)C(=O)NCC1OCCN1C(=O)c1ccc(Cl)cc1` (centres undefined) had a normalized cell count of 70.9%.
Take `CCn1c(C2CC(=O)N(c3cc(C)cc(C)c3)C2)nc2ccccc21` (centres undefined): the normalized cell count was 137%.
`Cn1c(=O)c(Oc2ccc(F)cc2)c(O)c2ccccc21` gave a normalized cell count of 81%.
In turn, `CNC(=O)c1cc(C)c(-c2ccccc2)s1` had a normalized cell count of 106%.
The same measure for `CCc1ccc(NC(=S)N2CCCCCCC2)cc1`: 40.5%; for `CCCCn1c(CN(C)Cc2ccccc2)nc2c1c(=O)n(C)c(=O)n2C`: 92.9%.
`C[N+]12CCCCC1C(COC(=O)c1ccc3c(c1)OCO3)CCC2` (centres undefined) yielded a normalized cell count of 47.8%.
The same measure for `Cn1c(=O)c2c(nc(CN3CCOCC3)n2CCCc2ccccc2)n(C)c1=O`: 180%; for `CCOc1ccc(Br)cc1CC(=O)O`: 73.7%.
Take `Cc1cccc(N2CCCn3c2nc2c3c(=O)n(CCN3CCOCC3)c(=O)n2C)c1`: the normalized cell count came to 105%.
With `COc1ccc2[nH]c(=O)c(CN(C(C)=O)c3cccc(C)c3)cc2c1`, the normalized cell count is 100%.
`Cc1nc(Nc2ccc3c(c2)OCO3)c2oc3ccccc3c2n1` displayed a normalized cell count of 140%.
The compound `CCCn1nnc(NC(=O)c2ccc(Br)cc2)n1` registered a normalized cell count of 164%.
Regarding `N#CCCN1CCNCC1`, the normalized cell count is 113%.
`Cc1ccc(NCCc2ccc(C)nc2)cc1` displayed a normalized cell count of 153%.
`CCN1C/C(=C/c2cccc([N+](=O)[O-])c2)C(=O)/C(=C/c2cccc([N+](=O)[O-])c2)C1` showed a normalized cell count of 0%.
`CCOc1nc(NC(=O)NS(=O)(=O)c2ccccc2F)nc(-c2ccccc2)n1` gave a normalized cell count of 133%.
Compound `COc1ccc(-c2nc(SCC(=O)NCc3ccco3)c(-c3ccccc3)[nH]2)cc1OC` gave a normalized cell count of 86.7%.
`COc1ccc(C(=O)O)cc1F`: the normalized cell count was 115%.
As to `CN1CCN(C(=O)CSc2ccc(Cl)cc2)CC1`, the normalized cell count was found to be 87.5%.
The compound `O=C(CSc1nnnn1Cc1ccccc1)c1ccccc1F` yielded a normalized cell count of 41.1%.
In the case of `CSc1nc(-c2ccc(Cl)cc2)nn1C(=O)c1ccccc1`, the normalized cell count worked out at 172%.
Consider `O=C(CSc1nnc2ccccn12)NCc1ccco1`, for which the normalized cell count was 54%.
Turning to `CC(C)OCCCNC(=O)NC12CC3CC(CC(C3)C1)C2`, the normalized cell count came to 151%.
For `COc1ccc(NC(=O)N2CCCCC2)cc1` the value was 102%.
For the compound `CC1=C(C(=O)OCc2ccc(C)cc2)C(c2ccc(O)c([N+](=O)[O-])c2)NC(=O)N1` (centres undefined), the normalized cell count was determined as 46.9%.
Turning to `O=C(CSc1ccc(-c2ccco2)nn1)Nc1ccccc1`, the normalized cell count was determined as 181%.
For `CCNc1nc(NC(C)C)nc(OCC)n1` the value was 161%; for `CC1CC1C(=O)OCC(=O)NC(=O)NC12CC3CC(CC(C3)C1)C2` (centres undefined), 22.9%.
The compound `COC(=O)c1ccc2nc(C(F)(F)F)[nH]c2c1` yielded a normalized cell count of 77.8%.
As for `CN(Cc1ccc(O)cc1)C1CCCCC1`, the normalized cell count was found to be 56.2%.
The compound `CC(=O)NC1C(=O)N(CCc2ccccc2)c2ccc(Br)cc21` (centres undefined) had a normalized cell count of 68.3%.
The compound `CN(/N=C/c1cccnc1)c1cnc2ccccc2n1` had a normalized cell count of 96%.
`O=C(NCc1ccccc1Cl)C(=O)NCC(c1ccco1)N1CCOCC1` (centres undefined) displayed a normalized cell count of 78.2%.
In turn, `Cc1cc(N2CCOCC2)nc2ccc(NC(=S)N3CCCCC3C)cc12` (centres undefined) showed a normalized cell count of 44%.
In turn, `CCN1C(=O)CC(N2CCN(c3ccc(C(=O)c4ccncc4)cc3)CC2)C1=O` (centres undefined) displayed a normalized cell count of 134%.
`COC(=O)c1c(N2C(=O)Nc3ccccc3N2O)sc2c1CCCC2` gave a normalized cell count of 166%.
The compound `CC(C)Cn1nc(NC(=O)C2CCCO2)c2cc3ccccc3nc21` (centres undefined) showed a normalized cell count of 158%.
In the case of `COc1cc(CC(=O)Nc2cccc(SC)c2)cc(OC)c1OC`, the normalized cell count worked out at 101%.
The same measure for `Cn1ccc(=S)c2ccccc21`: 66%; for `CS(=O)(=O)NCCCNc1c(Cl)cccc1[N+](=O)[O-]`: 53.5%.

The record behind these values is PubChem BioAssay AID1273 (Columbia University Molecular Screening Center, 2008).
